Laboratory results: PubChem BioAssay AID1671195 (Yale University, 2021)
This is a random part of about 22,000 reagents tested. In the full data, about 1,510 (6.9%) are marked active. 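Active includes knockdowns raising or lowering LDL uptake; positive z-scores mean more uptake, negative mean less.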 Unmarked entries are inactive. The numbers tell different reagents against one gene apart. Reagent sequences are not shown.

Test: 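Knockdowns that increase or decrease uptake of fluorescent LDL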 (primary screen)
Cell system: human Huh7 hepatoma cells
Knock-down reagent: siRNA pool against human genes, 18 nM
Timing: about 2 to 2.5 days of knockdown, then 8 h LDL uptake
Treatment: DiI-labelled LDL at 30 µg/ml for 8 h, in lipoprotein-deficient serum medium
Read-out: 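Per-cell DiI-LDL intensity by automated imaging; well means scaled to the plate median and given as a robust z-score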
Direction: robust z-score: higher = more LDL uptake after knockdown
Call rule: 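a gene counts as active if at least two replicate z-scores exceed ±2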

gene symbol	reagent no.	robust z-score, replicate 1	robust z-score, replicate 2	robust z-score, replicate 3
SNCG (GeneID 6623)	1	-0.465	0.491	-0.276
MLYCD (GeneID 23417)	1	-1.59	-1.7	-1.58
LOC440968 (retired record) (GeneID 440968)	1	-0.674	0.141	-0.159
DHRS9 (GeneID 10170)	1	-2.24 (active)	-1.38	-2.56
LOC441483 (retired record) (GeneID 441483)	1	-1.48	-1.42	-1.48
TNFRSF21 (GeneID 27242)	1	-0.913	-1.52	0.349
PDE4DIPP3 (GeneID 199882)	1	0.389	0.525	0.826
XPA (GeneID 7507)	1	-0.309	-0.0913	0.276
RBM33 (GeneID 155435)	1	7.24 (active)	4.12	5.1
RBM33 (GeneID 155435)	2	2.38 (active)	1.77	2.46
LOC339746 (retired record) (GeneID 339746)	1	-0.812	-1	-1.06
PPP2R5B (GeneID 5526)	1	-0.218	0.0671	-0.0833
LOC442070 (retired record) (GeneID 442070)	1	-0.375	-0.96	-0.485
LOC442251 (retired record) (GeneID 442251)	1	-0.0973	-0.0572	0.149
IL1RAP (GeneID 3556)	1	-1.23	-2.02	-1.37
HSD17B1 (GeneID 3292)	1	-0.739	-1.35	-0.908
AZGP1 (GeneID 563)	1	1.67	1.58	2.94
HP (GeneID 3240)	1	0.203	1.62	-2.27
HERC2P9 (GeneID 440248)	1	-0.181	-0.00506	-0.5
PPP1R9A (GeneID 55607)	1	-1.03	-0.659	-1.09
SYTL4 (GeneID 94121)	1	2.28	1.54	1.29
GAD1 (GeneID 2571)	1	-1.3	0.653	-0.274
HEY1 (GeneID 23462)	1	-1.03	-0.505	0.0335
KIAA1549L (GeneID 25758)	1	1.09	0.152	-0.277
KIAA1549L (GeneID 25758)	2	-0.313	0.69	-0.035
PNMA3 (GeneID 29944)	1	-0.839	-1.6	-0.711
LOC441340 (retired record) (GeneID 441340)	1	0.194	-0.287	-0.427
PSMA1 (GeneID 5682)	1	0.921	0.618	0.981
RAB30 (GeneID 27314)	1	0.854	0.698	1.11
TTC29 (GeneID 83894)	1	-0.695	-0.156	0.206
FIP1L1 (GeneID 81608)	1	-1.61	-1.82	-1.44
HDAC10 (GeneID 83933)	1	-0.346	0.0237	-0.505
CARD6 (GeneID 84674)	1	-0.818	-0.396	-0.779
AAMDC (GeneID 28971)	1	2.03	0.447	1.67
MFSD8 (GeneID 256471)	1	0.592	0.777	0.47
NEUROD2 (GeneID 4761)	1	-0.54	-0.157	-0.171
MARCHF7 (GeneID 64844)	1	1.18	0.966	1
TTLL9 (GeneID 164395)	1	0.328	1.48	0.601
LYVE1 (GeneID 10894)	1	-1.38	-0.9	-1.76
POLD1 (GeneID 5424)	1	-0.0472	-0.198	-0.0188
RAB7B (GeneID 338382)	1	1.35	1.52	0.379
ZNF517 (GeneID 340385)	1	-0.173	0.0398	0.0229
LOC390192 (retired record) (GeneID 390192)	1	1.16	0.24	0.191
ZNF346 (GeneID 23567)	1	-1.33	-1.26	-1.01
TIGD3 (GeneID 220359)	1	-0.714	-0.961	-0.739
FAM171A1 (GeneID 221061)	1	1.46	1.25	1.27

Sorted by “robust z-score, replicate 1” (descending): 4 of the entries above
gene symbol	reagent no.	robust z-score, replicate 1	robust z-score, replicate 2	robust z-score, replicate 3
AAMDC (GeneID 28971)	1	2.03	0.447	1.67
HDAC10 (GeneID 83933)	1	-0.346	0.0237	-0.505
CARD6 (GeneID 84674)	1	-0.818	-0.396	-0.779
FIP1L1 (GeneID 81608)	1	-1.61	-1.82	-1.44
